Laboratory results: US7700106B2, “Therapeutic agent for ulcerative colitis” (priority 2001, dated 2010)
At least one compound was matched to its structure with a doubt left.

Tested on: Fusobacterium varium
Assay: Susceptibility of Fusobacterium varium to antimicrobial agents
Type: cell-based
Source text: The susceptibility to Fusobacterium varium in antimicrobial agents was examined.

NC[C@H]1O[C@H](O[C@H]2[C@H](O)[C@@H](O[C@H]3O[C@H](CO)[C@@H](O)[C@H](N)[C@H]3O)[C@H](N)C[C@@H]2N)[C@H](O)[C@@H](O)[C@@H]1O [kanamycin]
resistance of Fusobacterium varium to antimicrobial agent: resistant
